Measured values published in patent publication US20120128661A1 (ALETHIA BIOTHERAPEUTICS, published 2012).
These are yes or no findings as the source states them, for the method shown. Some binding calls cover weakened binding; strength is not graded here.

Biological target: T1, KAAG1 antigen on the surface of cancer cell lines (SKOV-3, OV-90, TOV-21G, OVCAR-3, TOV-112D, WIL2-S, A375, SK-MEL5, A-498) (human) (UniProt Q9UBP8)
T1 sequence: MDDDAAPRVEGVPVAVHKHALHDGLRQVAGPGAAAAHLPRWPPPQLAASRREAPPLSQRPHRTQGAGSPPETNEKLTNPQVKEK
Experiment: flow cytometry on SKOV-3 cells, anti-mouse IgG-FITC

binding: binds
B1: mouse 3D3 anti-KAAG1 antibody (antibody, V domains shown)
VH: EVQLQQSVAELVRPGASVTLSCKASGYIFTDYEIHWVKQTPVHGLEWIGVIDPETGNTAFNQKFKGKATLTADISSSTAYMELSSLTSEDSAVYYCMGYSDYWGQGTTLTVSS
VL: DIVMTQSPSSLAVSIGQKVTMNCKSSQSLLNSNFQKNFLAWYQQKPGQSPKLLIYFASTRESSIPDRFIGSGSGTDFTLTISSVQAEDLADYFCQQHYSTPLTFGAGTKLELK
